This is an account of results in article PMC7297795.

Protein sequences, listed by entry. Tags and fused reporters are not part of them.
UniProt Q13547: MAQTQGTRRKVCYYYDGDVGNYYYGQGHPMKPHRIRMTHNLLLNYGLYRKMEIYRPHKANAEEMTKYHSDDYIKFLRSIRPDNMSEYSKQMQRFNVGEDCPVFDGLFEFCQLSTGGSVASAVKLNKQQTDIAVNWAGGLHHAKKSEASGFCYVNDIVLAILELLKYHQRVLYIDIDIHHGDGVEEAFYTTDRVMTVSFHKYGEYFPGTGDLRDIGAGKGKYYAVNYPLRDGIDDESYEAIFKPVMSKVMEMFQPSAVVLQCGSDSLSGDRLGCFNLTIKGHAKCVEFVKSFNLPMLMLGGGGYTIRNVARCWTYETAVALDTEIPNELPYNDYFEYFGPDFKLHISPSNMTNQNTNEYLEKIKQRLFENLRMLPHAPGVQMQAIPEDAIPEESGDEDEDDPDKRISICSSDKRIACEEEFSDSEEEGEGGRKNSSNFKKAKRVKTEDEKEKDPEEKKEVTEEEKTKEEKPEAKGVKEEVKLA
UniProt Q13887: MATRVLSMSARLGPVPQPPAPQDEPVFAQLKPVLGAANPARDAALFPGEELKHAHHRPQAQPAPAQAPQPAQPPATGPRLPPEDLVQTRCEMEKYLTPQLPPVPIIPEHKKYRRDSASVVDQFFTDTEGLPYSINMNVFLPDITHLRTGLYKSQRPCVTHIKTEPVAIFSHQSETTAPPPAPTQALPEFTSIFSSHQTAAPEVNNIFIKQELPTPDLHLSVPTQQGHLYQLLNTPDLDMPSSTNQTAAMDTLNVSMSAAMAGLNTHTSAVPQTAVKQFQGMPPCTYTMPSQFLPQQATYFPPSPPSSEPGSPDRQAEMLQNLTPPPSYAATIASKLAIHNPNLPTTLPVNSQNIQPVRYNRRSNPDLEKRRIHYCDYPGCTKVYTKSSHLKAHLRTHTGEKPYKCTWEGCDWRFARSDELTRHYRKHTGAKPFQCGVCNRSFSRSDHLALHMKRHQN

For assay [1], the target named is HDAC1-Flag (UniProt Q13547). The assay is described as follows: co-IP; exogenous: 293T cells transiently transfected with pCMV3-HDAC1-Flag and HA-KLF5 for 48 h; detected by western blotting; IgG as negative control, input as positive control. Background: Immunoblotting shows a protein as a band on a membrane.
Assay [2] concerns the target HDAC1 (histone deacetylase 1), endogenous (human (endogenous in 22RV1 and PC-3)) (UniProt Q13547). The assay is described as follows: co-IP; endogenous proteins in 22RV1 and PC-3 cells; detected by western blotting; IgG as negative control, input as positive control.

No constants are given. Whether binding was seen depends on the method and setting. Binding seen in cells or lysates may run through a third protein. Some entries that bind do so weakly or less than the wild type.

Take HA-KLF5 (from UniProt Q13887 1-457): the binding result in assay [1] was “binds”.
As to “KLF5 (Krüpple-like transcription factor 5), endogenous (from UniProt Q13887 1-457)”, in assay [2], the binding result was “binds”.
